No constants are given. Whether binding was seen depends on the method and setting. Some entries that bind do so weakly or less than the wild type. Values belong to the binder of their own block, whether it stands above or below them.
Key:
[1] = target: CD28 (detection antigen of the BLI assay) (human) (UniProt P10747); test: BLI (GATOR)
[2] = target: CD40-Fc (not stated for this staining reagent (paragraph 357 names a recombinant human CD40-Fc for the phage screening)) (UniProt P25942); test: flow cytometry, lentivirus-transduced T cells, CD40-Fc 2 µg/mL + PE-anti-Fc
[3] = target: CD40-Fc (not stated for this staining reagent (paragraph 357 names a recombinant human CD40-Fc for the phage screening)) (UniProt P25942); test: flow cytometry of T cells expressing new A40C28, CD40-Fc + PE-anti-Fc
[4] = target: CD40-Fc (not stated for this staining reagent (paragraph 357 names a recombinant human CD40-Fc for the phage screening)) (UniProt P25942); test: flow cytometry of T cells expressing the diabody, CD40-Fc + PE-anti-Fc
[5] = target: CD40 (analyte of the SPR assay) (UniProt P25942); test: SPR (Biacore 2000)

By UniProt entry, the sequences of proteins in these tests, tags left out. Residues count along the entry.
UniProt P10747, residues 19-152: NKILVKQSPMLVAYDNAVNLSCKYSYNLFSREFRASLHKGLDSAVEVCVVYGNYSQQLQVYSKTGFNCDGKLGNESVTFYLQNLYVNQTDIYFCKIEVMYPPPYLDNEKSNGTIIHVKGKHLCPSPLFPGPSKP
UniProt P25942, residues 21-193: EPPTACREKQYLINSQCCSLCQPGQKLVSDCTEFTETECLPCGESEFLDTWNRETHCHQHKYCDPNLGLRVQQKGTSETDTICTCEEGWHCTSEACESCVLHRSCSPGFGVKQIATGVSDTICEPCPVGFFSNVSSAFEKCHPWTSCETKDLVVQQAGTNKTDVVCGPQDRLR

B2: A40C2828 (protein)
membrane fusion protein with an anti-CD40 antibody part: QVQLVQSGAEVKKPGASVKVSCTASGFNIKDYYVHWVKQAPGQGLEWMGRIDPEDGDSKYAPKFQGKATMTADTSTSTVYMELSSLRSEDTAVYYCTTSYYVGTYGYWGQGTLVTVSSGGGGSGGGGSGGGGSDIQMTQSPSSLSASVGDRVTITCSASSSVSYMLWFQQKPGKAPKLLIYSTSNLASGVPSRFSGSGSGTDFTLTISSLQPEDFATYYCQQRTFYPYTFGGGTKVEIKRTASIEVMYPPPYLDNEKSNGTIIHVKGKHLCPSPLFPGPSKPFWVLVVVGGVLACYSLLVTVAFIIFWVRSKRSRLLHSDYMNMTPRRPGPTRKHYQPYAPPRDFAAYRS
binding [2]: binds
binding [3]: binds

B3: 5.17 (bispecific antibody)
single chain, scFv-G4S-scFv: QVQLVQSGAEVKKPGSSVKVSCKASGGTFSSYAISWVRQAPGQGLEWMGMINPSGGTTSYAQKFQGRVTMTRDTSTSTVYMELSSLRPEDTAVYYCARGFRMDQWGQGTLVTVSSGGGGSGGGGSGGGGSQSALTQPPSASGSPGQSVTISCTGTSSDVGAYNFVSWYQQHPGNAPKLIIYDVRKRPSGIPDRFSASKSGNTASLTVSGLQADDEADYYCSSYAGNNEMVFGGGTKLTVLGGGGSQVKLQESGPGLVKPSETLSITCTVSGFSLSDYGVHWVRQSPGKGLEWLGVIWAGGGTNYNSALMSRKTISKDNSKSQVFLKMSSLTAADTAVYYCARDKGYSYYYSMDYWGQGTTVTVSSGGGGSGGGGSGGGGSDIQLTQSPSSLSVSVGDRVTISCRASESVEYYVTSLMQWYQQKPGQAPKLLIFAASNVESGVPSRFSGSGSGTNFTLTISSVQEEDFAMYFCQQSRKVPYTFGGGTKLEIK
binding [2]: binds
binding [4]: binds

Now from value to binder:

binding [1]: binds
B1: huVH1huVL1 (antibody, human IgG1, kappa, V domains shown)
VH: QVKLQESGPGLVKPSETLSITCTVSGFSLSDYGVHWVRQSPGKGLEWLGVIWAGGGTNYNSALMSRKTISKDNSKSQVFLKMSSLTAADTAVYYCARDKGYSYYYSMDYWGQGTTVTVSS
VL: DIQLTQSPSSLSVSVGDRVTISCRASESVEYYVTSLMQWYQQKPGQAPKLLIFAASNVESGVPSRFSGSGSGTNFTLTISSVQEEDFAMYFCQQSRKVPYTFGGGTKLEIKR

binding [5]: binds
B4: 4052.17 (antibody, V domains shown)
VH: QVQLVQSGAEVKKPGSSVKVSCKASGGTFSSYAISWVRQAPGQGLEWMGMINPSGGTTSYAQKFQGRVTMTRDTSTSTVYMELSSLRPEDTAVYYCARGFRMDQWGQGTLVTVSS
VL: QSALTQPPSASGSPGQSVTISCTGTSSDVGAYNFVSWYQQHPGNAPKLIIYDVRKRPSGIPDRFSASKSGNTASLTVSGLQADDEADYYCSSYAGNNEMVFGGGTKLTVL
